Results deposited as PubChem BioAssay AID504791 (Drosophila RNAi Screening Center, 2011).
Screen: 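Factors in Argonaute-based small RNA production and activity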 (primary screen). Cell system: Drosophila S2-derived reporter cells. Knock-down reagent: long dsRNA against Drosophila genes, about 150-250 ng dsRNA per well (siRNA assay); about 80-120 ng (miRNA assay). Time to read-out: about 5 days (siRNA assay); about 4 days (miRNA assay). Conditions: copper sulfate induction of reporters: 25 µM (siRNA assay); 200 mM stated (miRNA assay), 1-2 days before reading. Measured: 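Per-well ratio of Renilla over firefly light, expressed relative to that plate's average ratio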. Hit rule: 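First-pass picks had plate-scaled ratios over 1.5 for the siRNA assay, over 1.6 for the miRNA assay, or under 0.6; two distinct dsRNAs had to score alike on retest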.
In all, the deposit lists about 23,000 reagents; shown is a random part of those with a known target gene and a result. Over the whole deposit, 199 (0.86%) were called active. 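Plate-scaled ratios behind the calls are not deposited; printed light signals are raw; many rows marked increased or decreased are still called inactive.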 Reagents against one gene are numbered here. A plus sign joins genes that one reagent is predicted to hit. Reagent sequences are not shown. Not given: the direction of the score.

no.	Target gene	reagent	stable siRNA reporter change	stable assay Renilla, run 1 (luminescence)	stable assay firefly, run 1 (luminescence)	call
1	CG31827 + CG18478	1		8130	3.61e5	inactive
2	mex1 (midgut expression 1)	1		7262	5.50e5	inactive
3	Tk (Tachykinin)	1		4836	5.32e5	inactive
4	Tk (Tachykinin)	2		9078	7.26e5	inactive
5	CG14566	1		6704	3.45e5	inactive
6	CG42680	1		7856	6.11e5	inactive
7	Nopp140	1		8370	4.84e5	inactive
8	Pxn (Peroxidasin)	1		3824	3.60e5	inactive
9	TP53INP (Tumor protein p53 inducible nuclear protein)	1		5291	4.25e5	inactive
10	TP53INP (Tumor protein p53 inducible nuclear protein)	2		5903	5.93e5	inactive
11	CG13693	1		8634	6.62e5	inactive
12	Brf (Brf RNA polymerase III subunit)	1		5467	5.11e5	inactive
13	Brf (Brf RNA polymerase III subunit)	2		5300	3.15e5	inactive
14	Brf (Brf RNA polymerase III subunit)	3		5782	3.59e5	inactive
15	jef (jet fuel)	1		6910	4.16e5	inactive
16	CG3164	1		7072	3.26e5	inactive
17	D19B	1		6627	3.52e5	inactive
18	CG2750	1		5092	4.74e5	inactive
19	svp (seven up)	1		4332	3.38e5	inactive
20	svp (seven up)	2	reporter ratio raised past the hit cutoff	5095	1.74e5	inactive
21	svp (seven up)	3		2760	3.21e5	inactive
22	bru2 (bruno 2)	1		4687	4.34e5	inactive
23	bru2 (bruno 2)	2		4340	3.85e5	inactive
24	bru2 (bruno 2)	3		4848	3.65e5	inactive
25	bru2 (bruno 2)	4		4335	3.92e5	inactive
26	bru2 (bruno 2)	5		6406	2.89e5	inactive
27	CG10866	1		5664	3.79e5	inactive
28	CG6425	1		8275	4.87e5	inactive
29	CG13029	1		6670	3.39e5	inactive
30	crok (crooked)	1		7158	4.24e5	inactive
31	crok (crooked)	2		8865	4.14e5	inactive
32	CG32277	1		5811	3.15e5	inactive
33	CG3556	1		7710	5.45e5	inactive
34	CG32512	1		4503	2.66e5	inactive
35	CG32512	2		5907	2.89e5	inactive
36	CG32512	3		8983	3.98e5	inactive
